PubChem BioAssay AID686937, Drosophila RNAi Screening Center – 2013
The screen tested about 23,000 reagents; below is a random part of those that have a named target and a result. 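Reduced-secretion tags in replicate 1 do not always agree with the z-scores; no criterion for assigning the tags was given.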 The numbers tell different reagents against one gene apart. Names joined by + are all predicted targets of the reagent. Reagent sequences are not shown. Not stated in the record: the amount of reagent.

Test: 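Genes whose loss weakens secretory pathway function in fly cells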 (primary screen)
System: Drosophila S2 cells expressing secreted horseradish peroxidase
Reagent: long dsRNA against Drosophila genes
Duration: about 5.5 days (5 days dsRNA, then 12 h reporter induction)
Challenge: reporter expression induced after 5 days of dsRNA, read 12 h later; inducer not stated
Detection: 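After 5 days of dsRNA and 12 h of reporter induction, medium peroxidase read by chemiluminescence and scored as per-plate z-score; higher values mean more reporter released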
Scale: z-score: higher = more reporter secreted into medium

gene	dsRNA no.	z-score, replicate 1	z-score, replicate 2	z-score, replicate 3	z-score, replicate 4	phenotype, replicate 1
Arl8	1	-0.08	0.28			
Samtor	1	-0.05	0.04			
CG5550	1	0.25	-0.6			
CG17107	1	0.44	0.03	0.08	-0.04	
CG17107	2	-0.68	-0.44			
CG12923	1	0.34	0.25			
CG31675	1	0.46	-1.94			
CG31639	1	0.01	0.12			
CG31949	1	0.07	0.3			
CG7137	1	0.5	0.38			
CG1486	1	0.32	0.22			
CG33255 (retired record) + hpRNA:CR32205 + CR42838	1	-1.15	0.1			
CG6739	1	0.33	0.2			
CG2218	1	0.43	0.5			
pbl	1	-0.41	-0.6			
CG11275	1	0.47	0.31			
wuho	1	0.25	0.56			
CG8366	1	0.43	0.31			
CG12817	1	0.36	0.59			
dpr11	1	0.11	-0.1			
dpr11	2	0.13	0.25			
dpr11	3	-0.03	-0.2			
Sas-4	1	0.15	0.16			
CG15570	1	0.41	0.29			
CG8230	1	0.19	0.12			
CR14798	1	0.27	0.22			
CG34444	1	0.24	0.4			
CG14292	1	0.47	0.25			
Mes2	1	0.3	0.38			
Mes2	2	-0.17	0.5	0.14	0.03	

Looked up above.
dpr11 #3, z-score, replicate 2: -0.2
CG34444, z-score, replicate 1: 0.24
For “z-score, replicate 2”, CG1486 is entered as 0.22
CG12923, z-score, replicate 2: 0.25
CG31639, z-score, replicate 1: 0.01
Result for CR14798 in “z-score, replicate 1”: 0.27

The results go on.
gene	dsRNA no.	z-score, replicate 1	z-score, replicate 2	z-score, replicate 3	z-score, replicate 4	phenotype, replicate 1
CG30082	1	1.23	0.3			
CG31445	1	0.52	0.45			
Kcmf1	1	0.6	0.58			
CG31267	1	0.24	0.55			
Nup188	1	-0.13	1.47			
Shmt	1	0.24	0.16			
CG11099	1	0.21	-1.07			
bora	1	0.14	0.06			
CG12848	1	0.38	0.27			
Cap-D2	1	-0.32	-0.18			
dop	1	0.36	0.4			
tRNA:Leu-CAA-2-3	1	0.49	0.39			
Orc4	1	-11.1	0.14			reduced secretion
TwdlQ	1	0.29	-0.34			
Tmtc1	1	0.45	-0.09			
Tmtc1	2	-0.14	-0.15			
Tmtc1	3	0.1	-0.01			
Tmtc1	4	0.1	-0.07			
Lcp65Ag3	1	0.19	0.31	-0.04	0.01	
CG10165	1	0.35	0.28			
CG14402	1	0.43	0.31			
CG18636	1	0.25	-0.15			
Ir7c	1	-0.02	-0.61			
CG10469	1	0.09	0.26			
link	1	-1	-0.05			
Spn28Db	1	0.6	-0.03			
eIF4E1	1	0.06	-1.04			
Pka-C1	1	0.07	0.35			
CG43367 + asRNA:CR32252	1	0.07	0.43			
bug	1	0.43	0.35			
chk	1	0.48	0.27			
Prx6a	1	0.4	0.52			
CG9512	1	0.46	0.61			
CG10265	1	0.22	0.22			
CG10265	2	0.17	-0.33			
CG12581	1	0.11	0.23			
CG12581	2	0.21	0.42			
CG14265	1	0.21	0.5			
CG18599	1	-3.86	0.34	0.25	-4.64	
CG18599	2	-3.74	-2.75			reduced secretion
CG14491	1	0.43	0.34			
CG11674	1	0.23	0.32			
Atet	1	0.6	0.29			
CG12826	1	0.34	0.39			
CycB3	1	0.1	0.2			
Hsc70-5	1	-0.52	-1.07			
RpL23A	1	0.09	0.16			
RpL23A	2	0.27	0.05			
Cse1	1	-0.66	-1.15	0.25	-0.83	
mle	1	0.2	0.17			
Rpt4	1	-1.2	-3.87			
CG31808	1	0.09	0.04			
